The test addresses T1, human MMP-12 catalytic domain wild type (cdMMP-12 wt) (human, UniProt P39900 106-263).
T1 construct: biotinylated for ELISA/BLI; also called wt cdMMP-12; cdMMP-12 wide-type
Briefly: BLItz bio-layer interferometry; printed as 'Affinity ... (nM)'. On the technique in general: Biolayer interferometry detects binding as a change in optical thickness at a sensor tip.

The chains behind the UniProt entries cited, without tags or fusion partners. A line that says so, or that is headed by a name, gives the form on record, which may keep a tag or linker.
UniProt P39900, other isoform, or with tags, fused parts or gaps limits assumed: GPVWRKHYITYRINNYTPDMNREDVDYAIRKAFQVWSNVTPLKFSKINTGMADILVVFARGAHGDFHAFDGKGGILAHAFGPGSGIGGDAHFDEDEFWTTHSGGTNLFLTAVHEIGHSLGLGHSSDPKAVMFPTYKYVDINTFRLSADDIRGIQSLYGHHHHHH

Broadly, the Kd is the concentration at which binding is half-saturated.

B1: N-terminal domain of tissue inhibitor of metalloproteinases 1 (nTIMP-1) (other, UniProt P01033 24-149, looked up)
chain: CTCVPPHPQTAFCNSDLVIRAKFVGTPEVNQTTLYQRYEIKMTKMYKGFQALGDAADIRFVYTPAMESVCGYFHRSHNRSEEFLIAGKLQDGLLHITTCSFVAPWNSLSLAQRRGFTKTYTVGCEE
notes: domain: N-terminal domain; Periplasmically expressed and purified as reported elsewhere
As for B1, binding was characterised by a dissociation constant (Kd) of 480 nM. In other words, the sub-micromolar range.

Source of the values: US20200392251A1 (University of California, published 2020).
